Experimental data published in PubChem BioAssay AID1688 (National Center for Advancing Translational Sciences (NCATS), 2009).
In all, about 220,000 compounds went through this assay and about 2,400 (1.1%) were called active. The inconclusive results got no clear call from the source; some entries with a clear call stand among them for comparison. Calls come from the whole dose curve; as a rule, active = well fitted inhibition curve with a large enough effect; inconclusive = small, poorly fitted or top-dose-only effect, or effect the other way; inactive = no such curve, though single readings can be large or run the other way. A potency beside an inconclusive call is a rough fit, not a confirmed value.

Assay: qHTS Multiplex Assay to Identify Dual Action Probes in a Cell Model of Huntington: Aggregate Formation (GFP); note: nearly all actives have a fitted effect of over 60% in size
Settings: PC12 HttQ103-GFP aggregates, Acumen cytometry, 40 h; activity change, negative = inhibition: at 46.1 µM (top of the series) unless noted
Summary of the method: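 Read-out: GFP aggregate count by laser scanning cytometer (488 nm excitation, 500-530 nm emission, 1–25 µm objects >6 SD above background). Cells: PC12, inducible HTTex1-Q103-GFP, 100 nM tebufenozide; compounds titrated.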
% is set by controls: 0 for no effect and ±100 for the full control effect; potency is the fitted concentration of half-maximal effect.

Row | Structure (SMILES) | Potency | activity change, negative = inhibition
1 | COCCNC(=O)c1ccc(NC(=O)C2(c3ccccc3)CCCC2)cc1 | inconclusive: 1.26 µM [activator, single point] | –
2 | CCN(CC(=O)Nc1ccccc1Br)C1CCCCC1 | – | inactive: -13.8%
3 | COc1ccc(C(=O)c2ccccc2)c2c(O)ccc(C(=O)c3ccccc3)c12 | active: 3.55 µM | –
4 | CCCCNC1=CC(=O)C(=O)c2ccccc21 | – | inactive: -7.17% [at 9.22 µM]
5 | COc1ccc2cc3cc(C(=O)NCCCN4CCc5ccccc5C4)sc3nc2c1 | inconclusive: 35.5 µM [inhibitor, single point] | –
6 | CC(C)C(=O)Nc1ccc(S(=O)(=O)Nc2nccc(/C=C/c3ccccc3)n2)cc1 | inconclusive: 11.2 µM [activator, partial curve] | –
7 | CCn1c(SCc2nc3sc(C(=O)O)c(C)c3c(=O)[nH]2)nnc1-c1ccc(Cl)cc1 | inconclusive: 2.51 µM [activator, partial curve] | –
8 | OCCC1CN(CCCn2cccn2)CCN1Cc1ccccc1 (centres undefined) | – | inactive: 9.37% [at 9.22 µM]
9 | Cn1c(=O)c2c(nc(CN3CCN(Cc4ccccc4)CC3)n2Cc2ccc(Cl)cc2)n(C)c1=O | inconclusive: 25.1 µM [inhibitor, single point] | –
10 | CCCC1C(C#N)=C(N)Oc2n[nH]c(C(C)(C)C)c21 (centres undefined) | – | inactive: -8.04%
11 | O=C1CCN2C=Nc3cccc4ccc1c2c34 | inconclusive: 3.55 µM [inhibitor, partial curve] | –
12 | COc1ccc2c3c(cccc13)C(=O)N(O)C2=O | inconclusive: 2.51 µM [activator, full curve, poor fit] | –
13 | Cc1[nH]nc2c1C(C(C)c1ccccc1)C(C#N)=C(N)O2 (centres undefined) | inconclusive: 35.5 µM [inhibitor, single point] | –
14 | COc1ccc(O)c(/C=N/NC(=O)c2ccc(CSc3nc(C)cc(C)n3)cc2)c1 | active: 5.62 µM | –
15 | Cc1ccc(/C=C2\SC(=S)N(C3CCS(=O)(=O)C3)C2=O)cc1 (centres undefined) | inconclusive: 31.6 µM [inhibitor, single point] | –
16 | N#C/C(=N/Nc1ccc(S(=O)(=O)N2CCOCC2)cc1)C(N)=O | inconclusive: 0.891 µM [inhibitor, single point] | –
17 | CN(C(=O)c1sc2nc(N3CCOCC3)c3c(c2c1N)CCCC3)c1ccccc1 | inconclusive: 10 µM [inhibitor, single point] | –
18 | COc1ccc(OCC(=O)NC(=S)N2CCCc3ccccc32)cc1 | inconclusive: 25.1 µM [inhibitor, single point] | –
19 | Cc1cccc(N2CC(C(=O)OCC(=O)c3ccc(OC(=O)c4cccs4)cc3)CC2=O)c1C (centres undefined) | – | inactive: 4.58%
20 | CCCCCCCSc1nnc(-c2ccccc2N)c(=O)[nH]1 | inconclusive: 11.2 µM [inhibitor, single point] | –
21 | O=C(CSc1cnc2ccccc2n1)NC1CCCC1 | inconclusive: 22.4 µM [inhibitor, single point] | –
22 | Cc1nn(-c2ccc(F)cc2)c2sc(C(=O)N3CCCCCC3)cc12 | inconclusive: 5.01 µM [inhibitor, single point] | –
23 | Cc1ccc(NC2=C/C(=N/S(=O)(=O)c3cccs3)c3ccccc3C2=O)cc1C | inconclusive: 1 µM [inhibitor, full curve] | –

Row | Structure (SMILES) | Potency | activity change, negative = inhibition
24 | COc1ccc(-n2c(Cc3cccn3C)nnc2SCC(=O)Nc2ccc3c(c2)OCO3)cc1 | – | inactive: 9.87%
25 | Cc1nc(SCC(=O)OCc2ccccc2)c2c(=O)n(C)c(=O)n(C)c2n1 | inconclusive: 0.501 µM [activator, partial curve] | –
26 | CCOc1ccc(CCN2C(=O)C(=O)N([C@H](CCCN(C)Cc3ccccc3)CNCc3ccccc3)C[C@@H]2C(C)C)cc1 | – | inactive: -25.7% [at 9.22 µM]
27 | Cc1ccc(Cl)cc1N1CCN(C(=O)CSc2nnc3n2C(C)(C)Cc2ccccc2-3)CC1 | active: 7.94 µM | –
28 | CCOC(=O)c1cnc2sc3c(n2c1=O)CCCC3 | active: 8.91 µM | –
29 | CC1=Nc2ccccc2N=C(NC(=O)c2ccccc2)C1c1ccccc1 (centres undefined) | inconclusive: 35.5 µM [inhibitor, single point] | –
30 | CC(C)N1C/C(=C/c2ccsc2)C(=O)/C(=C/c2ccsc2)C1 | inconclusive: 22.4 µM [activator, single point] | –
31 | Cc1nn(-c2nc3ccccc3n2Cc2ccccc2)c2c1C(=O)CC(C)(C)C2 | inconclusive: 35.5 µM [inhibitor, single point] | –
32 | COc1ccc2cc3c(N)nn(C(=O)Cc4c[nH]c5ccccc45)c3nc2c1 | active: 3.16 µM | –
33 | O=C(c1ccco1)N(c1ccccn1)c1ccccn1 | inconclusive: 1.58 µM [inhibitor, partial curve, poor fit] | –
34 | CCOc1ccc(C(=O)NCC(=O)N2CCc3ccccc3C2)cc1OCC | inconclusive: 22.4 µM [activator, partial curve, poor fit] | –
35 | CC(=O)Nc1ccc(C(=O)CSc2nc3ccc(C)cc3[nH]2)cc1 | inconclusive: 11.2 µM [activator, single point] | –
36 | CC(=O)N(Cc1nc2sc(C)c(C)c2c(=O)[nH]1)C1CCCC1 | – | inactive: 1.66% [at 9.22 µM]
37 | CCCCCCCCCCCC[n+]1ccc2ccccc2c1 | active: 7.08 µM | –
38 | [2H]c1c([2H])c([2H])c(C(=O)c2sc(N3CCCCCC3)nc2-c2ccccc2)c([2H])c1[2H] | – | inactive: -12.2%
39 | Cc1cccnc1CN1CCN(C(=O)c2cc(COc3ccc4ncccc4c3)on2)CC1 | active: 6.31 µM | –
40 | CCOC(=O)C1=C(CSc2nc(C)ccc2C#N)OC(N)=C(C#N)C1c1cccc(OC)c1OC (centres undefined) | inconclusive: 35.5 µM [activator, single point] | –
41 | CCCC(=O)Nc1ccc(C(=O)Nc2ccc([N+](=O)[O-])cc2OC)cc1 | inconclusive: 0.501 µM [activator, full curve, poor fit] | –
42 | NS(=O)(=O)c1ccc(NC(=O)Nc2ccc(C(F)(F)F)cc2)cc1 | – | inactive: -15.7% [at 9.22 µM]
43 | O=C(CSc1nnc(Cc2cccs2)n1-c1ccc(Cl)cc1)NCc1ccc2c(c1)OCO2 | inconclusive: 35.5 µM [inhibitor, single point] | –
44 | CCn1c(SCC(=O)NCc2ccco2)nnc1-c1cccs1 | inconclusive: 3.55 µM [activator, partial curve, poor fit] | –
45 | COc1ccc(C(CCNCc2ccc(OC(C)C)cc2)C(C)C)cc1 (centres undefined) | – | inactive: 0.627% [at 9.22 µM]
46 | CCn1cc(C(=O)NCc2ccccn2)c(=O)c2cc(F)c(N3CCN(C)CC3)cc21 | – | inactive: -1.08%

Row | Structure (SMILES) | Potency | activity change, negative = inhibition
47 | Cc1ccc(NC(=O)Cn2c(=O)n(CCCC(=O)NCc3ccco3)c(=O)c3ccccc32)cc1 | inconclusive: 0.708 µM [inhibitor, single point] | –
48 | c1ccc(-n2nnnc2Oc2cccc3cccnc23)cc1 | inconclusive: 10 µM [inhibitor, partial curve, poor fit] | –
49 | O=C(Nc1ccccc1C(=O)Nc1nnc(C(F)(F)F)s1)c1ccccc1 | inconclusive: 5.62 µM [inhibitor, single point] | –
50 | COC(=O)c1c(C)nc2ccccc2c1C(=O)O | – | inactive: 4.67%
51 | CC1=C(C#N)C(NC(=O)c2cccc(Cl)c2)(C(F)(F)F)C(=O)N1 (centres undefined) | inconclusive: 3.16 µM [inhibitor, single point] | –
52 | N#CCSc1nc2c(cc1C#N)CCCC2 | inconclusive: 0.251 µM [activator, full curve, poor fit] | –
53 | CCCCn1c(=O)[nH]c(=O)c2c1nc(-c1ccccc1F)n2Cc1ccccc1 | inconclusive: 28.2 µM [inhibitor, single point] | –
54 | Cc1noc2ncnc(Oc3ccc(Cl)cc3Cl)c12 | – | inactive: 21.1%
55 | CC1CC(C)CN(CCCSc2ccccc2)C1 (centres undefined) | – | inactive: 0.0984%
56 | CCCCn1c(/C=N/Nc2nc3ccccc3[nH]2)nc2ccccc21 | inconclusive: 35.5 µM [inhibitor, partial curve] | –
57 | COc1cc2c3c(c1)/C(=C1/SC(=S)NC1=O)C(=O)N3C(C)(C)C=C2C | inconclusive: 3.16 µM [inhibitor, partial curve] | –
58 | CN(C)c1ccc(C(=O)NN2C(=O)c3ccccc3C2=O)cc1 | – | inactive: -17.5%
59 | O=C(NCCN1CCN(c2ccccc2)CC1)c1ccc(NC(=O)C2CCCO2)cc1 (centres undefined) | inconclusive: 35.5 µM [activator, single point] | –
60 | Cc1[nH]n(-c2ccccc2)c(=O)c1C1(C(F)(F)F)C(=O)N(c2ccc(F)cc2)C2=C1C(=O)CC(C)(C)C2 (centres undefined) | inconclusive: 35.5 µM [inhibitor, single point] | –
61 | O=C(c1ccco1)N1CCN(c2nc3ccccc3n3nnnc23)CC1 | inconclusive: 1.12 µM [activator, partial curve] | –
62 | COc1cccc(/C=N/n2c(=S)n(C)c3ccccc32)c1OC | – | inactive: 22.2%
63 | COc1cc(Cl)c(C)cc1NC(=O)COC(=O)c1cc[n+]([O-])cc1 | – | inactive: 1.13%
64 | CCCCCC(=O)c1ccc(O)cc1O | active: 0.141 µM | –
65 | CCCCc1nc2sc3c(SCC(=O)NCc4ccco4)ncnc3c2c2c1CCC2 | inconclusive: 11.2 µM [activator, partial curve] | –
66 | Cc1ccc(S(=O)(=O)n2cnc3ccccc32)cc1 | inconclusive: 3.16 µM [inhibitor, single point] | –
67 | Cc1ccccc1OCCSCc1nc2ccccc2[nH]1 | active: 3.55 µM | –
68 | O=C(CCc1ccccc1)NC(NC(=S)Nc1ccc(Cl)cc1)C(Cl)(Cl)Cl (centres undefined) | inconclusive: 25.1 µM [inhibitor, single point] | –
69 | COc1ccc(CNC(=O)CSc2nnc(C(F)(F)F)n2C)cc1 | inconclusive: 5.62 µM [inhibitor, single point] | –

Grouped by structure, the compounds so far with a COOH group (2)
Row | Structure (SMILES) | Potency | activity change, negative = inhibition
7 | CCn1c(SCc2nc3sc(C(=O)O)c(C)c3c(=O)[nH]2)nnc1-c1ccc(Cl)cc1 | inconclusive: 2.51 µM [activator, partial curve] | –
50 | COC(=O)c1c(C)nc2ccccc2c1C(=O)O | – | inactive: 4.67%
